Measured values published in PubChem BioAssay AID720550 (National Center for Advancing Translational Sciences (NCATS), 2013).
The shares of active, inactive and inconclusive entries below differ from those in the screen. Potencies of inconclusive entries are doubtful fits and often do not repeat. Activity calls are given as the source filed them. Calls follow the shape of the dose curve; as a rule, active = well fitted curve in the direction sought with a large enough effect; inconclusive = small, poorly fitted or top-dose-only effect, or another doubt; inactive = no such curve, though single readings can be large or run the other way.

Assay: qHTS for Inhibitors of Bloom's syndrome helicase (BLM): Thiazole Orange DNA Binding Counterscreen for SAR.
Settings: fluorescence; Potency: Thiazole orange DNA displacement; series mostly up to 57.1 µM
Text: Human RecQ DNA helicases participate in maintenance of genome stability and DNA repair. While other types of helicases have been explored as targets for drug development, members of the RecQ family have remained less well characterized. Mutations of the Bloom helicase gene have been associated with the rare human genetic disease called Bloom syndrome. […] Moreover, identified inhibitors can be used in cells and animal models to examine the consequences of inhibition on the survival of cancer cells where it has been shown that BLM plays an important role.
A fluorescence-based, biochemical assay in 1536 well format was developed to evaluate inhibition of BLM DNA unwinding activity. This assay was used to screen the MLPCN library. The resulting compounds were subjected to orthogonal and secondary biochemical assays to triage the initial hits, to classify compounds based on mode of action and to derive structure activity relationships (SARs) of candidate effectors. The Thiazole Orange (ThO) DNA binding (TO-binding) is used to eliminate inhibitors that operate via nonspecific DNA binding. This displacement assay is miniaturized for a 1536-well format and utilizes a ThO dye bound to unlabeled DNA. Inactivation or no significant activity is the desired outcome for this assay.
NIH Chemical Genomics Center [NCGC]
NIH Molecular Libraries Probe Centers Network [MLPCN]
Assay Submitter (PI): Opher Gileadi, Structural Genomics Consortium, University of Oxford, UK
Compounds were added to a 4 uL mixture of 50 nM DNA and 100 nM ThO via pintool transfer. The fluorescence signal (excitation 480 nm, emission 530 nm) was measured after 15 min incubation at room temperature using the ViewLux CCD imager.

| SMILES | Potency |
| --- | --- |
| O=C(Nc1ccc(-c2ccccc2)cc1)Nc1nnc(-c2ccncc2)s1 | inconclusive: 4.08 µM [inhibitor, full curve, poor fit] |
| Nc1ccc(-c2nnc(NC(=O)Nc3ccc(Cl)c(Cl)c3)s2)cc1 | inconclusive: 20.4 µM [inhibitor, partial curve] |
| O=C(Nc1ccc(N2CCOCC2)c(C(F)(F)F)c1)Nc1nnc(-c2ccncc2)s1 | active: 4.08 µM |
| O=C(Nc1ccc2c(c1)CCC2)Nc1nnc(-c2ccncc2)s1 | inconclusive: 16.2 µM [inhibitor, partial curve] |
| S=C(Nc1ccc(Cl)c(Cl)c1)Nc1nnc(-c2ccncc2)s1 | inconclusive: 5.13 µM [inhibitor, partial curve] |
| O=C(Nc1ccc(Cl)c([N+](=O)[O-])c1)Nc1nnc(C2CCCCC2)s1 | inconclusive: 18.2 µM [inhibitor, partial curve] |
| O=C(Nc1ccc(Cl)c([N+](=O)[O-])c1)Nc1nnc(-c2ccncc2)s1 | active: 0.513 µM |
| Fc1ccc(NC(=S)Nc2nnc(-c3ccncc3)s2)cc1C(F)(F)F | inconclusive: 8.13 µM [inhibitor, full curve, poor fit] |
| Nc1cc(NC(=O)Nc2nnc(-c3ccncc3)s2)ccc1Cl | inconclusive: 16.2 µM [inhibitor, partial curve] |
| O=C(Nc1ccc(Br)c(Br)c1)Nc1nnc(-c2ccncc2)s1 | inconclusive: 2.89 µM [inhibitor, full curve] |
| N#Cc1cc(NC(=O)Nc2nnc(-c3ccncc3)s2)ccc1-c1ccc[nH]1 | inconclusive: 8.13 µM [inhibitor, full curve] |
| Cc1cc(NC(=O)Nc2nnc(-c3ccncc3)s2)ccc1-c1cn[nH]c1 | inconclusive: 18.2 µM [inhibitor, partial curve] |
| Cc1ccc(NC(=O)Nc2nnc(-c3ccncc3)s2)cc1C | inconclusive: 20.4 µM [inhibitor, partial curve] |
| O=c1c(Nc2ccc(F)c(C(F)(F)F)c2)c(Nc2nnc(-c3ccncc3)s2)c1=O | inconclusive: 16.2 µM [inhibitor, partial curve] |
| N#Cc1cc(NC(=O)Nc2nnc(-c3ccncc3)s2)ccc1-c1cn[nH]c1 | inconclusive: 18.2 µM [inhibitor, partial curve] |
| Nc1ccc(NC(=O)Nc2nnc(-c3ccncc3)s2)cc1C(F)(F)F | inconclusive: 20.4 µM [inhibitor, partial curve] |
| O=C(Nc1ccc(Cl)c([N+](=O)[O-])c1)Nc1nnc(-c2ccc(F)cc2)s1 | inconclusive: 1.82 µM [inhibitor, full curve] |
| O=C(Cc1nnc(-c2ccncc2)s1)Nc1ccc(F)c(C(F)(F)F)c1 | inactive |
| O=C(Nc1nnc(-c2ccncc2)s1)NC12CC3CC(CC(C3)C1)C2 | inactive |

| SMILES | Potency |
| --- | --- |
| O=C(Nc1ccc(Oc2ccccc2)cc1)Nc1nnc(-c2ccncc2)s1 | inconclusive: 16.2 µM [inhibitor, partial curve] |
| O=C(Nc1ccc(-c2cn[nH]c2)cc1)Nc1nnc(-c2ccncc2)s1 | inconclusive: 5.13 µM [inhibitor, full curve, poor fit] |
| O=c1c(Nc2ccc(Cl)c(Cl)c2)c(Nc2nnc(-c3ccncc3)s2)c1=O | active: 4.57 µM |
| O=C(Nc1ccc(Br)c(Br)c1)Nc1nnc(-c2cccnc2)s1 | inactive |
| N/C(=N\c1nnc(-c2ccncc2)s1)Nc1ccc(F)c(C(F)(F)F)c1 | inactive |
| CC(=O)c1ccc(NC(=O)Nc2nnc(-c3ccncc3)s2)cc1 | inactive |
| Cc1cc(NC(=O)Nc2nnc(-c3cccnc3)s2)ccc1F | inactive |
| O=C(Nc1ccc(F)c(C(F)(F)F)c1)Nc1ccc(-c2ccncc2)s1 | inconclusive: 16.2 µM [inhibitor, partial curve] |
| Cc1cc(Nc2c(Nc3nnc(-c4ccncc4)s3)c(=O)c2=O)ccc1Cl | inconclusive: 8.13 µM [inhibitor, partial curve] |
| Cc1cc(NC(=O)Nc2nnc(C3CCCCC3)s2)ccc1F | inactive |
| O=C(Nc1ccc2ccccc2c1)Nc1nnc(Br)s1 | inconclusive: 8.13 µM [inhibitor, single point] |
| O=C(Nc1ccc(F)c(C(F)(F)F)c1)Nc1nnc(C2CCCCC2)s1 | inactive |
| O=c1c(Nc2ccc(Br)c(Br)c2)c(Nc2nnc(-c3ccncc3)s2)c1=O | active: 10.2 µM |
| O=C(Nc1ccc(F)nc1)Nc1nnc(-c2ccncc2)s1 | inactive |
| Cc1cc(NC(=O)Nc2nnc(-c3ccncc3)s2)ccc1Br | inconclusive: 3.24 µM [inhibitor, full curve] |
| O=C(Nc1ccc(-c2cn[nH]c2)c(C(F)(F)F)c1)Nc1nnc(-c2ccncc2)s1 | inactive |
| O=C(Nc1ccc(Br)c(Br)c1)Nc1cccc(-c2ccncc2)n1 | inactive |
| O=C(Nc1cc(F)cc(F)c1)Nc1nnc(-c2ccncc2)s1 | inconclusive: 5.76 µM [inhibitor, full curve] |

A few values from the results shown:
For Potency, O=C(Nc1ccc(N2CCOCC2)c(C(F)(F)F)c1)Nc1nnc(-c2ccncc2)s1 is listed with active: 4.08 µM
For Potency, O=C(Nc1ccc(-c2cn[nH]c2)cc1)Nc1nnc(-c2ccncc2)s1 is listed with inconclusive: 5.13 µM [inhibitor, full curve, poor fit]
For Potency, CC(=O)c1ccc(NC(=O)Nc2nnc(-c3ccncc3)s2)cc1 is listed with inactive
